# Entries after “also recorded” stand apart in the source; their conditions may differ.
# Tested on: NOP14
# Test: Western blot of NOP14 in dorsal root ganglia after treatment
# Format: in vivo, mouse
# Conditions: 0.3 mg/kg s.c.; with or without intraplantar zymosan 16 h later; DRGs excised after a further 24 h
structure (smiles),measurement,value
C/C=C1/NC(=O)[C@@H]2CSC(=N2)[C@@H]2C[C@@H](C)N2C(=O)[C@@H](CC(C)C)NC(=O)[C@H](C)NC(=O)[C@@H](O)COC(=O)[C@H](C(C)C)N(C)C(=O)[C@H]([C@@H](C)O)NC(=O)[C@@H]2CCCCN2C1=O [vioprolide A],NOP14 protein expression in L4-L5 DRGs,did not detect altered expression of NOP14; also recorded: no change in NOP14 protein expression

# Reference: article PMC12345401, “The mRNA Translation Inhibitor Vioprolide A Prevents Inflammatory Pain‐Like Behaviour With Limited Action on Already Established Pain‐Like Behaviour in Mice” (European Journal of Pain (London, England), 2025)
